Measurements reported in PubChem BioAssay AID686943 (Drosophila RNAi Screening Center, 2013).
The deposit covers about 23,000 reagents; this is an unselected part of those with a known target gene and a result. 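Extra replicates exist only for a retested subset of genes; insulin dose and duration not given; both raised and lowered dpERK matter.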 A plus sign joins genes that one reagent is predicted to hit. Further read-outs or replicates are left out here. Not stated in the record: the amount of reagent, the time to read-out.

Aim: 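Search across the genome for regulators of signalling from receptor tyrosine kinase to ERK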 (primary screen)
Cells: Drosophila S2R+ haemocyte-like cells expressing YFP-tagged ERK (Rolled)
Knock-down reagent: long dsRNA against Drosophila genes
Conditions: insulin stimulation versus unstimulated cells; dose and duration not given
Read-out: 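Antibody staining for doubly phosphorylated ERK divided by ERK-YFP signal, as plate z-scores, in insulin-treated and untreated cells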
Direction: replicate 1, z-score of dpERK with insulin and replicate 2, z-score of dpERK with insulin: higher = more active ERK per ERK-YFP after insulin

CG43333 [DRSC01917] → replicate 1, z-score of dpERK with insulin = 0.42; replicate 2, z-score of dpERK with insulin = 1.6
CG9853 [DRSC12343] → replicate 1, z-score of dpERK with insulin = -0.12; replicate 2, z-score of dpERK with insulin = 0.4
CG9853 [DRSC22840] → replicate 1, z-score of dpERK with insulin = 0; replicate 2, z-score of dpERK with insulin = -0.23
CG7966 [DRSC16356] → replicate 1, z-score of dpERK with insulin = -0.46; replicate 2, z-score of dpERK with insulin = -0.13
bgm [DRSC03495] → replicate 1, z-score of dpERK with insulin = -0.69; replicate 2, z-score of dpERK with insulin = -0.88
CG43367 + asRNA:CR32252 [DRSC21715] → replicate 1, z-score of dpERK with insulin = -0.27; replicate 2, z-score of dpERK with insulin = 0.24
Osbp [DRSC16779] → replicate 1, z-score of dpERK with insulin = -0.5; replicate 2, z-score of dpERK with insulin = -0.71
Ir8a [DRSC17817] → replicate 1, z-score of dpERK with insulin = -0.42; replicate 2, z-score of dpERK with insulin = -0.06
Ir8a [DRSC17869] → replicate 1, z-score of dpERK with insulin = -0.03; replicate 2, z-score of dpERK with insulin = 0.82
Oat [DRSC11043] → replicate 1, z-score of dpERK with insulin = -1.35; replicate 2, z-score of dpERK with insulin = -0.26
ttm50 [DRSC18587] → replicate 1, z-score of dpERK with insulin = -0.87; replicate 2, z-score of dpERK with insulin = -0.05
CG13713 [DRSC08322] → replicate 1, z-score of dpERK with insulin = -0.1; replicate 2, z-score of dpERK with insulin = 0.18
Rrp46 [DRSC15537] → replicate 1, z-score of dpERK with insulin = 0.06; replicate 2, z-score of dpERK with insulin = 0.51
TTLL1A [DRSC20121] → replicate 1, z-score of dpERK with insulin = 0.06; replicate 2, z-score of dpERK with insulin = 0.25
Mal-A6 [DRSC07233] → replicate 1, z-score of dpERK with insulin = 0.39; replicate 2, z-score of dpERK with insulin = 0.21
DCAF12 [DRSC15475] → replicate 1, z-score of dpERK with insulin = -0.78; replicate 2, z-score of dpERK with insulin = -0.59
Idgf2 [DRSC03350] → replicate 1, z-score of dpERK with insulin = 0.81; replicate 2, z-score of dpERK with insulin = 0.06
Gr22e [DRSC20912] → replicate 1, z-score of dpERK with insulin = 0.49; replicate 2, z-score of dpERK with insulin = 1.04
hrm [DRSC04853] → replicate 1, z-score of dpERK with insulin = -0.61; replicate 2, z-score of dpERK with insulin = -2.47
deltaCOP [DRSC18760] → replicate 1, z-score of dpERK with insulin = 2.26; replicate 2, z-score of dpERK with insulin = 1.12
CG31191 [DRSC13455] → replicate 1, z-score of dpERK with insulin = 0; replicate 2, z-score of dpERK with insulin = 1.04
CG31191 [DRSC15214] → replicate 1, z-score of dpERK with insulin = -0.94; replicate 2, z-score of dpERK with insulin = -0.05
CG31191 [DRSC15215] → replicate 1, z-score of dpERK with insulin = -1.53; replicate 2, z-score of dpERK with insulin = -3.02
CG4017 [DRSC02733] → replicate 1, z-score of dpERK with insulin = -0.19; replicate 2, z-score of dpERK with insulin = 0.12
CG13877 + pyx [DRSC08347] → replicate 1, z-score of dpERK with insulin = 0.82; replicate 2, z-score of dpERK with insulin = 0.71
uzip [DRSC04722] → replicate 1, z-score of dpERK with insulin = -0.28; replicate 2, z-score of dpERK with insulin = 0.16
CG5327 [DRSC06930] → replicate 1, z-score of dpERK with insulin = 0.15; replicate 2, z-score of dpERK with insulin = -0.13
CG18223 [DRSC10306] → replicate 1, z-score of dpERK with insulin = -0.06; replicate 2, z-score of dpERK with insulin = -0.05
CG13711 [DRSC08320] → replicate 1, z-score of dpERK with insulin = -0.49; replicate 2, z-score of dpERK with insulin = 0
Mal-A3 [DRSC07462] → replicate 1, z-score of dpERK with insulin = 0.42; replicate 2, z-score of dpERK with insulin = -0.09
RpS15Ab + RpS15Aa [DRSC06129] → replicate 1, z-score of dpERK with insulin = -0.19; replicate 2, z-score of dpERK with insulin = -1.32
RpS15Ab + RpS15Aa [DRSC19831] → replicate 1, z-score of dpERK with insulin = 1.53; replicate 2, z-score of dpERK with insulin = -0.97
